In PubChem BioAssay AID212 (DTP/NCI, 2004):
The list is a part of this screen's results and no random one: it gathers tests that were run many times, whatever their T/C, doses with no T/C, and many T/C values between a quarter and a half above the control. Other doses and runs of a compound stand elsewhere. T/C gives the treated animals as a percentage of the vehicle group. Schedule codes are those of the source, read here as Q, the interval in days (D) or hours (H), X, the number of doses. Some doses were run more than once; the results are listed from low to high. Some T/C values carry the count of animals alive at the toxicity check (mostly the fifth day); without a count, all were alive then. Some doses have a count of surviving animals in place of a T/C: the source files T/C as zero there, which appears to mark a toxic dose or a test without result, not a measured value. Survivors were counted at the toxicity check, usually on the fifth day, unless a day is given; later deaths do not show. Where survival is the endpoint, this PubChem deposit counts one and a half times the control or more as active, and values a quarter to a half above the control carry no call in these data; other NCI protocols may use other cut-offs.

System: BDF1 mice, colon carcinoma 38 sc, T/C %
Assay: NCI In Vivo Anticancer Drug Screen. Data for tumor model Colon Carcinoma 38 (subcutaneous) in B6D2F1 (BDF1) mice
Procedure, shortened: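 T/C readout: treated group (T) measurement over vehicle control group (C) measurement. Endpoint is survival or tumor size in mice bearing a transplanted tumor.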

`CN(C)CCCOC(=O)Cc1cccc2c(=O)cc(-c3ccccc3)oc12` was tested, and the survivor count (T/C endpoint: median tumor weight (est.), dose: 400.0 mg/kg/injection, schedule: Q07DX002 (ip), vehicle: Klucel (hydroxypropylcellulose) (HPC), higher T/C = larger tumour) was 0 of 10 on day 20.

For `COc1cccc2c1C(=O)c1c(O)c3c(c(O)c1C2=O)C[C@@](O)(C(C)=O)C[C@@H]3OC1CC(N(C)C)C(O)C(C)O1` (stereo partly specified), the T/C (T/C endpoint: median survival time, dose: 16.0 mg/kg/injection, schedule: Q07DX002 (iv), vehicle: saline, higher T/C = longer survival) was 131 % of control, the T/C (T/C endpoint: median survival time, dose: 25.0 mg/kg/injection, schedule: Q07DX002 (iv), vehicle: saline, higher T/C = longer survival) was 147 % of control and the survivor count (T/C endpoint: median survival time, dose: 39.0 mg/kg/injection, schedule: Q07DX002 (iv), vehicle: saline, higher T/C = longer survival) was 1 of 10 on day 92. For the same compound, the T/C (T/C endpoint: median tumor weight (est.), dose: 1.12 mg/kg/injection, schedule: Q07DX002 (ip), vehicle: saline, evaluated on day 20, higher T/C = larger tumour) was 131 % of control [8 of 10 alive on day 20], the T/C (T/C endpoint: median tumor weight (est.), dose: 2.25 mg/kg/injection, schedule: Q07DX002 (ip), vehicle: saline, evaluated on day 20, higher T/C = larger tumour) was 125 % of control [9 of 10 alive on day 20] and the T/C (T/C endpoint: median tumor weight (est.), dose: 4.5 mg/kg/injection, schedule: Q07DX002 (ip), vehicle: saline, evaluated on day 20, higher T/C = larger tumour) was 28, 78, 82, 105 % of control. For the same compound, the T/C (T/C endpoint: median tumor weight (est.), dose: 9.0 mg/kg/injection, schedule: Q07DX002 (ip), vehicle: saline, evaluated on day 20, higher T/C = larger tumour) was 35, 69, 73, 88 % of control and the survivor count (T/C endpoint: median tumor weight (est.), dose: 36.0 mg/kg/injection, schedule: Q07DX002 (ip), vehicle: saline, higher T/C = larger tumour) was 0 of 10 on day 20, 1 of 10 on day 20, 2 of 10 on day 20.

For `Nc1ncnc2c1ccn2C1OC(CO)C(O)C1O` (stereo unspecified), the survivor count (T/C endpoint: median tumor weight (est.), dose: 8.0 mg/kg/injection, schedule: Q07DX003 (ip), vehicle: Klucel (hydroxypropylcellulose) (HPC), higher T/C = larger tumour) was 2 of 10 and 5 of 10.

For `C#CCN(Cc1ccc2nc(N)[nH]c(=O)c2c1)c1ccc(C(=O)NC(CCC(=O)O)C(=O)O)cc1` (stereo unspecified), the survivor count (T/C endpoint: median tumor weight (est.), dose: 800.0 mg/kg/injection, schedule: Q07DX002 (ip), vehicle: sodium bicarbonate, higher T/C = larger tumour) was 0 of 10 on day 20.

In the case of `CCCCNc1ccc2nnc(C)n2n1`, the survivor count (T/C endpoint: median tumor weight (est.), dose: 400.0 mg/kg/injection, schedule: Q07DX002 (ip), vehicle: other, higher T/C = larger tumour) is reported as 5 of 10 on day 20 and 6 of 10 on day 20 and the survivor count (T/C endpoint: median tumor weight (est.), dose: 800.0 mg/kg/injection, schedule: Q07DX002 (ip), vehicle: other, higher T/C = larger tumour) is reported as 0 of 10 on day 20.

For `OCC1OC(n2cnc3c2NC=NC[C@H]3O)CC1O` (stereo partly specified), the T/C (T/C endpoint: median tumor weight (est.), dose: 4.0 mg/kg/injection, schedule: Q07DX002 (ip), vehicle: saline, evaluated on day 20, higher T/C = larger tumour) was 130 % of control [9 of 10 alive on day 20], the survivor count (T/C endpoint: median tumor weight (est.), dose: 32.0 mg/kg/injection, schedule: Q07DX002 (ip), vehicle: saline, higher T/C = larger tumour) was 4 of 10 on day 20 and the survivor count (T/C endpoint: median tumor weight (est.), dose: 64.0 mg/kg/injection, schedule: Q07DX002 (ip), vehicle: saline, higher T/C = larger tumour) was 1 of 10 on day 20.

With `Nc1ccc(S(N)(=O)=O)cc1` the T/C (T/C endpoint: median tumor weight (est.), dose: 200.0 mg/kg/injection, schedule: Q07DX002 (ip), vehicle: saline with Tween-80, evaluated on day 20, higher T/C = larger tumour) was 129 % of control.

With `O=C1NC(=O)/C(=C/C=C/c2ccccc2)S1` the T/C (T/C endpoint: median tumor weight (est.), dose: 100.0 mg/kg/injection, schedule: Q07DX002 (ip), vehicle: saline with Tween-80, evaluated on day 20, higher T/C = larger tumour) was 144 % of control.

With `CC(=O)Oc1c[nH]c(=O)[nH]c1=O` the T/C (T/C endpoint: median tumor weight (est.), dose: 50.0 mg/kg/injection, schedule: Q07DX002 (ip), vehicle: distilled water + Tween-80, evaluated on day 20, higher T/C = larger tumour) was 132 % of control and the T/C (T/C endpoint: median tumor weight (est.), dose: 400.0 mg/kg/injection, schedule: Q07DX002 (ip), vehicle: distilled water + Tween-80, evaluated on day 20, higher T/C = larger tumour) was 133 % of control.

In the case of `CC(C)CC(=O)NC(C(=O)NC(C(=O)NC(CC(C)C)C(O)CC(=O)NC(C)C(=O)NC(CC(C)C)C(O)CC(=O)O)C(C)C)C(C)C` (stereo unspecified), the T/C (T/C endpoint: median tumor weight (est.), dose: 12.5 mg/kg/injection, schedule: Q07DX002 (ip), vehicle: Klucel (hydroxypropylcellulose) (HPC), evaluated on day 20, higher T/C = larger tumour) is reported as 137 % of control [9 of 10 alive on day 20] and the T/C (T/C endpoint: median tumor weight (est.), dose: 400.0 mg/kg/injection, schedule: Q07DX002 (ip), vehicle: Klucel (hydroxypropylcellulose) (HPC), evaluated on day 20, higher T/C = larger tumour) is reported as 144 % of control.

`O=c1[nH]c(=O)n([C@H]2CCCO2)cc1F` was tested, and the T/C (T/C endpoint: median tumor weight (est.), dose: 20.0 mg/kg/injection, schedule: Q07DX003 (ip), vehicle: Klucel (hydroxypropylcellulose) (HPC), evaluated on day 20, higher T/C = larger tumour) was 130 % of control and the survivor count (T/C endpoint: median tumor weight (est.), dose: 640.0 mg/kg/injection, schedule: Q07DX003 (ip), vehicle: Klucel (hydroxypropylcellulose) (HPC), higher T/C = larger tumour) was 4 of 10.

In the case of `ClCCCN1CCCCC1CCl` (stereo unspecified), the survivor count (T/C endpoint: median tumor weight (est.), dose: 50.0 mg/kg/injection, schedule: Q07DX002 (ip), vehicle: saline, higher T/C = larger tumour) is reported as 5 of 10 on day 20.

With `COc1ccc(-c2cc(=O)c3cccc(CC(=O)O)c3o2)cc1` the survivor count (T/C endpoint: median tumor weight (est.), dose: 400.0 mg/kg/injection, schedule: Q07DX002 (ip), vehicle: saline with Tween-80, higher T/C = larger tumour) was 2 of 10 on day 20.
